Consider one compound from the supplement of paper PMC6411743.

± gives the standard deviation of the averaged measurements. Some of the results follow.

The target of this assay is T1, UniProt P55036 and related entries.
T1 sequence (whole entry): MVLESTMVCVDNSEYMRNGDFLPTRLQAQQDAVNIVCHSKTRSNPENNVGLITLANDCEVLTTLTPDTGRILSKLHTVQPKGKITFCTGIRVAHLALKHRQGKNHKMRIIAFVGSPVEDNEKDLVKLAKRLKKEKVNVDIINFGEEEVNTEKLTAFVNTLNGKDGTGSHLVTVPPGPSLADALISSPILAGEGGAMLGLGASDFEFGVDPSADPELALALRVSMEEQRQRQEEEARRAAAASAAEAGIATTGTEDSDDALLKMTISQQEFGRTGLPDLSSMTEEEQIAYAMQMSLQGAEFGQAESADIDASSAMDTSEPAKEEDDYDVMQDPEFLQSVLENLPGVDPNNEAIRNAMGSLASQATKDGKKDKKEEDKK
The assay is described as follows: NP40-soluble protein abundance relative to vehicle (solubility fold change) (ratio); higher = more soluble protein in presence of GTP. The method, then: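 Solubility proteome profiling in Jurkat crude lysate. Lysate was treated with Mg-GTP (0.1-10 mM) for 10 min at room temperature and 3 min at 37 °C, then solubilised with 0.8% NP40 and benzonase, followed by ultracentrifugation. Proteins were quantified by TMT10 LC-MS/MS; the value is the NP40-soluble abundance relative to the NP40-processed vehicle, from 3 independent experiments.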

Turning to `Nc1nc2c(ncn2[C@@H]2O[C@H](COP(=O)(O)OP(=O)(O)OP(=O)(O)O)[C@@H](O)[C@H]2O)c(=O)[nH]1` [guanosine triphosphate], the NP40-soluble protein abundance reads like this: (concentration: 0.1mM) 0.929 ± 0.091; (concentration: 0.5mM) 0.96 ± 0.078; (concentration: 1mM) 0.923 ± 0.064; (concentration: 2mM) 0.975 ± 0.068; (concentration: 4mM) 0.98 ± 0.13; (concentration: 6mM) 0.988 ± 0.1. Also, the NP40-soluble protein abundance is, setting by setting: (concentration: 8mM) 0.972 ± 0.084; (concentration: 10mM) 0.994 ± 0.11.
